The results in this text go back to patent US20260217861A1.

The chains behind the UniProt entries cited, without tags or fusion partners. Where a name states a change or a piece, a line headed by the entry shows the natural chain unless it says otherwise.
UniProt P02671: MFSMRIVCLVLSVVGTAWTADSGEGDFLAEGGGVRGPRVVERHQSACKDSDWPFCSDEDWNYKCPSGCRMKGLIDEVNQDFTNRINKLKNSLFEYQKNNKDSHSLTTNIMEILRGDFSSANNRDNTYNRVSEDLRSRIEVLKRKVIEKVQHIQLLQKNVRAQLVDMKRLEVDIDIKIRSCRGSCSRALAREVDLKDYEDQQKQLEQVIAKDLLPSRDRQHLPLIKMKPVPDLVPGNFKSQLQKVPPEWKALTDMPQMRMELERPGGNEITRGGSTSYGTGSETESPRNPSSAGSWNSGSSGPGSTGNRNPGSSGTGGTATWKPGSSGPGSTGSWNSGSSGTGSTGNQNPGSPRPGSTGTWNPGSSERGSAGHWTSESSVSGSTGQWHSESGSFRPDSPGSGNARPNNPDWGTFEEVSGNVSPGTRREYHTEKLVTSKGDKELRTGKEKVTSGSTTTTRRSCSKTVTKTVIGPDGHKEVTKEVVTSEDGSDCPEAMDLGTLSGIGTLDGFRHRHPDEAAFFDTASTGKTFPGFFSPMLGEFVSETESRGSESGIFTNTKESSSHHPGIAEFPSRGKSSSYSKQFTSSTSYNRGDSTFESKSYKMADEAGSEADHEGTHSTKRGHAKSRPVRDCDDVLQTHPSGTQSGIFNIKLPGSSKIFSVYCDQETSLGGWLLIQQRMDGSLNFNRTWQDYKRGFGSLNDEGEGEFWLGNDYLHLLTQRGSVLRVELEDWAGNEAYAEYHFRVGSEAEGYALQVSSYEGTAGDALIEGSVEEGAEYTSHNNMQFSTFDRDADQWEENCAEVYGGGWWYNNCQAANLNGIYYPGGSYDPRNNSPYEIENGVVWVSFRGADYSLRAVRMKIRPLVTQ
UniProt P02675: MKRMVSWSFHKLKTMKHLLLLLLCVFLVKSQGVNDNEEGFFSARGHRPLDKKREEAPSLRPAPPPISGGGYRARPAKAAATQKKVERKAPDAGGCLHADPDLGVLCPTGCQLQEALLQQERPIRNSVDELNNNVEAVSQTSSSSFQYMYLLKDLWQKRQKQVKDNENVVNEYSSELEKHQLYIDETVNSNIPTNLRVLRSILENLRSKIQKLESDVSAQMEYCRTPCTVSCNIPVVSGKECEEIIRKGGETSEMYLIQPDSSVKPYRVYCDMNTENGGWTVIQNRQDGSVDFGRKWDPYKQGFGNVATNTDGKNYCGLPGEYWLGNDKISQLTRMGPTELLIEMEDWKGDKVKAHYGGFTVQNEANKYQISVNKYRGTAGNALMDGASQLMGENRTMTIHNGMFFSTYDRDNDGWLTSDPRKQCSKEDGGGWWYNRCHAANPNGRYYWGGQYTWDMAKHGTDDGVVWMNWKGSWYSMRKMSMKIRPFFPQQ
UniProt P02679: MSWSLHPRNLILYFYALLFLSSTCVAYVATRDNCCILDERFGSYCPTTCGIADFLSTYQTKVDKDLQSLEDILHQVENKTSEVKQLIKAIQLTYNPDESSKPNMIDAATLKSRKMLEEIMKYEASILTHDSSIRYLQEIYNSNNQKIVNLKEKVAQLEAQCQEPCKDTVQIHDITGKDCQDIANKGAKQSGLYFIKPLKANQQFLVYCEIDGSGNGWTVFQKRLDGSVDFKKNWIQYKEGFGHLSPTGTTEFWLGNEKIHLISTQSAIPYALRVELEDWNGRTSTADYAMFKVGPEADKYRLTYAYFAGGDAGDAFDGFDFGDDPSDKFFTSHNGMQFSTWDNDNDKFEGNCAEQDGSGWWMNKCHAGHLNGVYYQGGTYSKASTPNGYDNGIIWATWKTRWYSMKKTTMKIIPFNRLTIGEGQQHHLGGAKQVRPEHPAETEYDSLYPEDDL

For the test, the target named is fibrin polymerised from human fibrinogen (human) (UniProt P02671+P02675+P02679). Kind of test: static fibrin polymerisation with rhGPV (20 µg/ml) stained with LUM/B AF647, confocal microscopy.

These are yes or no findings as the source states them, for the method shown. Some binding calls cover weakened binding; strength is not graded here.

B1: recombinant ectodomain of human GPV (rhGPV) (receptor)
chain: QPFPCPPACKCVFRDAAQCSGGDVARISALGLPTNLTHILLFGMGRGVLQSQSFSGMTVLQRLMISDSHISAVAPGTFSDLIKLKTLRLSRNKITHLPGALLDKMVLLEQLFLDHNALRGIDQNMFQKLVNLQELALNQNQLDFLPASLFTNLENLKLLDLSGNNLTHLPKGLLGAQAKLERLLLHSNRLVSLDSGLLNSLGALTELQFHRNHIRSIAPGAFDRLPNLSSLTLSRNHLAFLPSALFLHSHNLTLLTLFENPLAELPGVLFGEMGGLQELWLNRTQLRTLPAAAFRNLSRLRYLGVTLSPRLSALPQGAFQGLGELQVLALHSNGLTALPDGLLRGLGKLRQVSLRRNRLRALPRALFRNLSSLESVQLDHNQLETLPGDVFGALPRLTEVLLGHNSWRCDCGLGPFLGWLRQHLGLVGGEEPPRCAGPGAHAGLPLWALPGGDAECPGPRGPPPRPAADSSSEAPVHPALAPNSSEPWVWAQPVTTGKGQDHHHHHHHHHHH
For the molecule B1, the binding result is recorded as “binds”.
